The source of these data is publication PMC12412326 (Current Issues in Molecular Biology, 2025).

The data set in a line: general procedure: Fmoc solid-phase peptide synthesis; Rink amide resin (loading capacity: 0.6 mmol/g); HBTU/HOBt, DIPEA. Conditions: whole synthesis, analytical HPLC; MALDI-TOF MS.

Plain letter strings leave the end groups untold. Some peptides are written in HELM: one residue between dots, names in brackets for other building blocks, links after the first $.

Regarding FLGALFKVASKLVPAAICSFSKKC, the “final HPLC purity” value was 90.09%.

In the case of “PEPTIDE1{F.A.K.W.A.F.K.W.L.K.K.[am]}$$$$V2.0”, the “final HPLC purity” value came out at 97.899%.
